# Laboratory results taken from PubChem BioAssay AID1347076 (National Center for Advancing Translational Sciences (NCATS), 2019).
# The whole screen tested about 400,000 compounds, of which about 13,000 (3.2%) were called active. Inconclusive results, whose numbers are uncertain, are shown with a selection of clear calls. The call rests on the fitted dose curve; in most records, active means well fitted cell-killing curve with a large enough effect; inconclusive means small, poorly fitted or top-dose-only effect, or effect the other way; inactive means flat fitted curve, though single readings scatter. Where the call is inconclusive, the potency comes from a doubtful curve fit.
# Assay: qHTS assay for MDR1-selective chemotherapeutics: Primary screen using the drug-selected MDR subline cells KB-V1; further: nearly all actives have a fitted effect of over 60% in size
# Details: KB-V1 MDR cells viability, CellTiter-Glo, 72 h; series mostly up to 46.1 µM
# Procedure, shortened: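 In this primary screen, KB-V1 cells overexpressing P-gp are incubated with library compounds (lowest to highest concentration) for 72 h at 37 degrees C before a luminescent ATP viability read.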
# Potency means the concentration at half of the fitted maximal effect.
row,SMILES,Potency
1,CCOC(=O)CNc1c(-c2ccc(O)cc2)nc2ccc(Cl)cn12,"inconclusive: 9.2 µM [rising, partial curve]"
2,COc1ccc(-n2ncc3c(N4CCN(c5cccc(C)c5)C(C)C4)ncnc32)cc1 (configuration not stated),"inconclusive: 4.11 µM [cytotoxic, full curve, poor fit]"
3,CC1(C)Cc2cccc(OCC(=O)OCC(=O)Nc3ccccc3)c2O1,"inconclusive: 11.6 µM [rising, partial curve, poor fit]"
4,O=C(NCc1cccs1)C1CCN(S(=O)(=O)c2ccc(Br)s2)CC1,"inconclusive: 20.6 µM [cytotoxic, partial curve, poor fit]"
5,CCn1c2ccccc2c2cc(NC(=O)c3cc(OC)c(OC)c(OC)c3)ccc21,"inconclusive: 1.16 µM [cytotoxic, full curve, poor fit]"
6,O=C1C(=O)c2ccccc2C(O)=C1C1CCC(c2ccc(Cl)cc2)CC1 (configuration not stated),"inconclusive: 10.3 µM [cytotoxic, partial curve]"
7,COC(=O)Cc1cn(-c2ncc(C(F)(F)F)cc2Cl)c2ccccc12,inactive
8,Cc1ccc(-c2noc(COc3ccc(Br)c(C)c3)n2)cc1,inactive
9,CC(NC(=O)c1ccc(OC2CCN(S(=O)(=O)N(C)C)CC2)cc1)C1CC1 (configuration not stated),"inconclusive: 18.4 µM [cytotoxic, partial curve]"
10,O=C(CN1CCN(S(=O)(=O)c2ccc(F)cc2)CC1)Nc1ccc(F)cc1F,inactive
11,C=CCSc1nc2c(c(=O)[nH]1)C(c1ccccc1)C(C#N)=C(N)O2 (configuration not stated),"inconclusive: 7.31 µM [rising, partial curve]"
12,O=C(OCc1cccc([N+](=O)[O-])c1)c1ccc[nH]c1=O,inactive
13,COc1cccc(CNC(=O)COC(=O)c2ccc(-c3ccc(O)cc3)cc2)c1,"inconclusive: 23.1 µM [cytotoxic, single point]"
14,Cc1ccc(SCc2cn3c(C)csc3n2)cc1,inactive
15,C=CCn1c(O)c(C(CC)=Nc2ccccc2NC(=O)CC)c(=O)[nH]c1=O,inactive
16,CC(=O)Nc1ccc(Sc2ccc([N+](=O)[O-])o2)cc1,"inconclusive: 29.1 µM [cytotoxic, single point]"
17,COc1ccc(S(=O)(=O)NC(C)C(=O)N2CCCC2)cc1Cl (configuration not stated),"inconclusive: 0.184 µM [rising, full curve]"
18,Clc1ccc2nc(-c3ccc(Br)s3)cn2c1,active: 18.4 µM
19,CCOc1ccc(N(CC(=O)Nc2cccc(Br)c2)S(C)(=O)=O)cc1,"inconclusive: 23.1 µM [cytotoxic, single point]"
20,O=C1NC[C@H](CC2CCCCC2)N(CCC23CC4CC(CC(C4)C2)C3)C1=O,inactive
21,Cc1cc(C(=O)Cn2c(CO)nc3ccccc32)c(C)n1C,"inconclusive: 7.31 µM [cytotoxic, full curve, poor fit]"
22,Cn1cc(C2CC(c3ccccc3)=NN2C(=O)c2ccccc2)c2ccccc21 (configuration not stated),active: 20.6 µM
23,O=c1c2ccccc2nc(SCc2cc(F)cc3c2OCOC3)n1Cc1ccco1,"inconclusive: 1.84 µM [cytotoxic, partial curve, poor fit]"
24,Cc1ccccc1Cn1c(O)c(N=NC(=S)Nc2ccccc2F)c2ccccc21,"inconclusive: 4.61 µM [cytotoxic, full curve]"

# By substructure, those above containing a Cl atom
row,SMILES,Potency
1,CCOC(=O)CNc1c(-c2ccc(O)cc2)nc2ccc(Cl)cn12,"inconclusive: 9.2 µM [rising, partial curve]"
6,O=C1C(=O)c2ccccc2C(O)=C1C1CCC(c2ccc(Cl)cc2)CC1 (configuration not stated),"inconclusive: 10.3 µM [cytotoxic, partial curve]"
7,COC(=O)Cc1cn(-c2ncc(C(F)(F)F)cc2Cl)c2ccccc12,inactive
17,COc1ccc(S(=O)(=O)NC(C)C(=O)N2CCCC2)cc1Cl (configuration not stated),"inconclusive: 0.184 µM [rising, full curve]"
18,Clc1ccc2nc(-c3ccc(Br)s3)cn2c1,active: 18.4 µM

# Later entries:

row,SMILES,Potency
1,COc1ccc2nc(N3C(=O)C(O)=C(C(=O)c4ccco4)C3c3ccccc3OC)sc2c1 (configuration not stated),"inconclusive: 16.4 µM [cytotoxic, single point]"
2,COc1cc(C(=O)NCCCCc2ccccc2)cc(OC)c1OC,inactive
3,CC(C)NC(=O)Nc1ccc2c(c1)N(C)C(=O)c1ccccc1S2,inactive
4,COc1ccc(C(=O)/C=C/c2ccc(N(C)C)cc2)c(OC)c1,"inconclusive: 14.6 µM [cytotoxic, partial curve, poor fit]"
5,COc1ccc(OC)c(-c2csc(NC(=O)c3ccccc3F)n2)c1,inactive
6,COc1ccc(OC)c(S(=O)(=O)N2CCC(C(=O)Nc3cccc(C(F)(F)F)c3)CC2)c1,"inconclusive: 20.6 µM [cytotoxic, partial curve, poor fit]"
7,COc1ccc(C2=CC3=C(Br)C(=O)C(C)(OC(=O)c4ccco4)C(=O)C3=CO2)cc1 (configuration not stated),inactive
8,Cc1nn(Cc2noc(C(=O)NCc3ccc(F)cc3)n2)c(C)c1Br,"inconclusive: 9.2 µM [cytotoxic, partial curve]"
9,Cc1cccc(COc2ccc(/C=N/NC(=O)c3nnn(-c4nonc4N)c3CN3CCCCC3)cc2)c1,"inconclusive: 9.2 µM [rising, partial curve, poor fit]"
10,Cc1oc(-c2ccc(Cl)cc2)nc1CN1CCC(C(=O)NCc2cccs2)CC1,inactive
11,CCOc1ccc(CC(=O)Nc2ccc3nc(N4CCCCC4)cc(C)c3c2)cc1OCC,inactive
12,O=C(CSC1=NCCN1)NC(c1ccccc1)c1ccccc1,inactive
13,CC(NC(=O)C1CCN(S(=O)(=O)N2CCCCCC2)CC1)c1ccccc1 (configuration not stated),"inconclusive: 11.6 µM [cytotoxic, partial curve, poor fit]"
14,COCC(=O)Nc1cccc(C(F)(F)F)c1,inactive
15,Cc1ccc(C2N(c3cccc(Cl)c3)C(=O)N3CCCN23)cc1 (configuration not stated),inactive
16,CCCNC(=O)C1(C)CCN(C(=O)c2ccccc2OC(F)(F)F)C1 (configuration not stated),inactive
17,Cc1ccc(C)c(C(=O)CN2C(=O)c3ccccc3C2=O)c1,inactive
18,O=C1CC(c2nc3ccccc3n2CCCCOc2ccccc2)CN1c1ccccc1Cl (configuration not stated),inactive
19,c1ccc(-c2nc(N3CCCCCC3)c3ccccc3n2)nc1,"inconclusive: 5.17 µM [cytotoxic, full curve]"
20,CN(C)CCN1C(=O)c2oc3ccccc3c(=O)c2C1c1ccc(F)cc1 (configuration not stated),"inconclusive: 14.6 µM [cytotoxic, single point]"
21,CCC1Oc2ccc(C)cc2N(CC(=O)NCc2cc(OC)ccc2OC)C1=O (configuration not stated),"inconclusive: 23.1 µM [cytotoxic, single point]"
22,O=C1c2ccc(-c3nc4ccccc4o3)cc2C(=O)N1Cc1ccccc1,active: 7.31 µM
23,O=c1oc2ccc(Br)cc2cc1S(=O)(=O)c1ccc(F)cc1,"inconclusive: 29.1 µM [cytotoxic, single point]"

# Part of the list above in another layout.
row	SMILES	Potency
21	Cc1cc(C(=O)Cn2c(CO)nc3ccccc32)c(C)n1C	inconclusive: 7.31 µM [cytotoxic, full curve, poor fit]
10	Cc1oc(-c2ccc(Cl)cc2)nc1CN1CCC(C(=O)NCc2cccs2)CC1	inactive
